Source: publication PMC11178546
No constants are given. Whether binding was seen depends on the method and setting. Binding seen in cells or lysates may run through a third protein. These calls come from enrichment with a bait or labelling near it, and not all partners need be listed. Where a sequence is shown, tags or fusion partners need not be part of it.

The chains behind the UniProt entries cited, without tags or fusion partners.
UniProt P98194: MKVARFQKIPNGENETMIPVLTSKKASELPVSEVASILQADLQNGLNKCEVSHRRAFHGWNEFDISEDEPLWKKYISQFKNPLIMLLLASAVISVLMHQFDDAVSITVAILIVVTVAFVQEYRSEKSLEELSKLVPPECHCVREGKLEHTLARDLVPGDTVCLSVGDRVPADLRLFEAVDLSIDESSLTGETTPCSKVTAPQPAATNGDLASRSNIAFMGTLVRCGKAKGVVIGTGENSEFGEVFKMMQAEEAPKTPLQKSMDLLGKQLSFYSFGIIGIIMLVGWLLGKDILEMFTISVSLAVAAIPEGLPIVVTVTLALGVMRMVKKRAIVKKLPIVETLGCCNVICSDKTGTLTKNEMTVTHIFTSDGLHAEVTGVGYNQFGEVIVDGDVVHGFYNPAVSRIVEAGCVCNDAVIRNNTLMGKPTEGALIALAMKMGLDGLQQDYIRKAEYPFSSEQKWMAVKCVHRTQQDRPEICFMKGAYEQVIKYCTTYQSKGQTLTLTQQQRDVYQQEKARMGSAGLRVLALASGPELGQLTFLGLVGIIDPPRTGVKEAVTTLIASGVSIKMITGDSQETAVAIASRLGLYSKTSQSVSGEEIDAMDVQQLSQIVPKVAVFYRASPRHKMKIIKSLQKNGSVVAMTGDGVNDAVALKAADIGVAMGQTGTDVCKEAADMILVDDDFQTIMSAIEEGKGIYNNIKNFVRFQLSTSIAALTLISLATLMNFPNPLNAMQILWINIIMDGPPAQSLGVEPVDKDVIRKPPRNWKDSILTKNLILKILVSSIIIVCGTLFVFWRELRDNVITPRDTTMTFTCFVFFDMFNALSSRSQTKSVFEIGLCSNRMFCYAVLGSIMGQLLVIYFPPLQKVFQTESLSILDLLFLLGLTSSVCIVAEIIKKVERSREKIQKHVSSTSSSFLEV

T1: TurboID-GOLIM4 fusion protein (human) (UniProt O00461)
T1 sequence: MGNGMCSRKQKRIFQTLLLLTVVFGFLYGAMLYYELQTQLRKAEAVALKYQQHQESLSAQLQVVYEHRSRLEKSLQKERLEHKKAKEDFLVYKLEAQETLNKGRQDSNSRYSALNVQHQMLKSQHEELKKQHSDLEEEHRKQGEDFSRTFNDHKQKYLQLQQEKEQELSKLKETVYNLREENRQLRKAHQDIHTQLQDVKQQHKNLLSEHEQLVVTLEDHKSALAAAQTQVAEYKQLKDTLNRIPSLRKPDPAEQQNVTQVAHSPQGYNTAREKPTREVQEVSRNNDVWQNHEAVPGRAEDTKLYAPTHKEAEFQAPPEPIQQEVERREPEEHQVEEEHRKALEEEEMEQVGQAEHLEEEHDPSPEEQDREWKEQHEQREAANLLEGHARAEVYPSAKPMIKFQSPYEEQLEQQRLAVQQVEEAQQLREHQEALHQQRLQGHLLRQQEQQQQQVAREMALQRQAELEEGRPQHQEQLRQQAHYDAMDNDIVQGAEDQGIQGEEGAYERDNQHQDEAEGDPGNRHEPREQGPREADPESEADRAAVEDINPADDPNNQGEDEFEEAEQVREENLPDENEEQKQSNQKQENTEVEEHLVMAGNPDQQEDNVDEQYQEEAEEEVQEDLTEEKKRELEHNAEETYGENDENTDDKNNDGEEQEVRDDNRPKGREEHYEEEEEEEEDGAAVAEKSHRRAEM


Columns and labels:
[1] = biological target: T1, TurboID-GOLIM4 fusion protein (human); test: proximity labelling; TurboID-GOLIM4 as bait in H1299 cells; 100 μM biotin for 1 hour; biotinylated proteins purified on streptavidin agarose beads and identified by LC-MS (the paper calls it a proximity ligation assay)
[2] = biological target: T1, TurboID-GOLIM4 fusion protein (human); test: proximity labelling; TurboID-GOLIM4 as bait in Mn-treated cells; biotinylated proteins identified by LC-MS

binding [1]	binding [2]	Molecule
binds		ATPase secretory pathway Ca2+ transporting 1 (ATP2C1) (from UniProt P98194 1-919)
	binds	GGA1 (protein, UniProt Q9UJY5 1-639) MEPAMEPETLEARINRATNPLNKELDWASINGFCEQLNEDFEGPPLATRLLAHKIQSPQEWEAIQALTVLETCMKSCGKRFHDEVGKFRFLNELIKVVSPKYLGSRTSEKVKNKILELLYSWTVGLPEEVKIAEAYQMLKKQGIVKSDPKLPDDTTFPLPPPRPKNVIFEDEEKSKMLARLLKSSHPEDLRAANKLIKEMVQEDQKRMEKISKRVNAIEEVNNNVKLLTEMVMSHSQGGAAAGSSEDLMKELYQRCERMRPTLFRLASDTEDNDEALAEILQANDNLTQVINLYKQLVRGEEVNGDATAGSIPGSTSALLDLSGLDLPPAGTTYPAMPTRPGEQASPEQPSASVSLLDDELMSLGLSDPTPPSGPSLDGTGWNSFQSSDATEPPAPALAQAPSMESRPPAQTSLPASSGLDDLDLLGKTLLQQSLPPESQQVRWEKQQPTPRLTLRDLQNKSSSCSSPSSSATSLLHTVSPEPPRPPQQPVPTELSLASITVPLESIKPSNILPVTVYDQHGFRILFHFARDPLPGRSDVLVVVVSMLSTAPQPIRNIVFQSAVPKVMKVKLQPPSGTELPAFNPIVHPSAITQVLLLANPQKEKVRLRYKLTFTMGDQTYNEMGDVDQFPPPETWGSL
